No constants are given. Whether binding was seen depends on the method and setting. Binding seen in cells or lysates may run through a third protein. Some binding calls cover weakened binding; strength is not graded here. For some of these results: Where a sequence is shown, tags or fusion partners need not be part of it. Blank lines part the entries; values can stand above or below the molecule they belong to.
What was measured:
RlucII-Rab7A = RlucII-Rab7A (UniProt P51149 1-207); assay: FRET or BRET
[1] = biological target: endogenous Vps26A (human (endogenous in HeLa)) (UniProt O75436); assay: co-IP
RlucII-CLN3 = biological target: T1, RlucII-CLN3 (UniProt Q13286); assay: FRET or BRET
T1 sequence: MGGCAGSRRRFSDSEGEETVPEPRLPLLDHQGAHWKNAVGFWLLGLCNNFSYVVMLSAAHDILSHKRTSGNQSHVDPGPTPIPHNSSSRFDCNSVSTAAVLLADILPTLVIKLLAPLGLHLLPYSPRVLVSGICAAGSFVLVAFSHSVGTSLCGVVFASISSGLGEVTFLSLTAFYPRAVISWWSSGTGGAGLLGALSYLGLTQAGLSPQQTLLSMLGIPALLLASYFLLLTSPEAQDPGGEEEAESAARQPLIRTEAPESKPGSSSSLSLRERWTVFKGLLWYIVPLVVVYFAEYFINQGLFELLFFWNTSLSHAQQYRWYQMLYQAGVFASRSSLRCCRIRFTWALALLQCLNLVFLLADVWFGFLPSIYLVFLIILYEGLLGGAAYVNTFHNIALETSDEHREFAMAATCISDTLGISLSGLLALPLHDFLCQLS

Sequences of proteins named here, by UniProt entry; tags and fusion partners are left off. Residues count along the entry.
UniProt Q99523, 78-831: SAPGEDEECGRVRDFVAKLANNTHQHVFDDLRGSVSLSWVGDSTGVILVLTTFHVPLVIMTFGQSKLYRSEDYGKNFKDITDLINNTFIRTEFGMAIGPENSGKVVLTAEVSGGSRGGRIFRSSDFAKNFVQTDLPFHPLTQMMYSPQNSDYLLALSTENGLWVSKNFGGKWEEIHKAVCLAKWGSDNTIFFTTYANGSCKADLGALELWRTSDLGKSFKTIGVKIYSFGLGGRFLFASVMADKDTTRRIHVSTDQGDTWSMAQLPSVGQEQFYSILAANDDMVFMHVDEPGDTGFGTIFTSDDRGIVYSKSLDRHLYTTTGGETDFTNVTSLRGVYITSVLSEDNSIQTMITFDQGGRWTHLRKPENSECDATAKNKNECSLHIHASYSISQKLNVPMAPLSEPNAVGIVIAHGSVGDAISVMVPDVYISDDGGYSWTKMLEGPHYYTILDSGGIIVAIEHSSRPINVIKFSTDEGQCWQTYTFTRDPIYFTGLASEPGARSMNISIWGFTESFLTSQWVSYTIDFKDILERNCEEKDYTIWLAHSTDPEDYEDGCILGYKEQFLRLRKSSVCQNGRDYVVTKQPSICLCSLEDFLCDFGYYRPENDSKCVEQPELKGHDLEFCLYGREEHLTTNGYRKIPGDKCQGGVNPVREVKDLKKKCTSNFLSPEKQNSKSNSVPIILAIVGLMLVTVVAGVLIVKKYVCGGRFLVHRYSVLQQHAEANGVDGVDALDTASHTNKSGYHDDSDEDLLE
UniProt Q9Y4G2, whole entry: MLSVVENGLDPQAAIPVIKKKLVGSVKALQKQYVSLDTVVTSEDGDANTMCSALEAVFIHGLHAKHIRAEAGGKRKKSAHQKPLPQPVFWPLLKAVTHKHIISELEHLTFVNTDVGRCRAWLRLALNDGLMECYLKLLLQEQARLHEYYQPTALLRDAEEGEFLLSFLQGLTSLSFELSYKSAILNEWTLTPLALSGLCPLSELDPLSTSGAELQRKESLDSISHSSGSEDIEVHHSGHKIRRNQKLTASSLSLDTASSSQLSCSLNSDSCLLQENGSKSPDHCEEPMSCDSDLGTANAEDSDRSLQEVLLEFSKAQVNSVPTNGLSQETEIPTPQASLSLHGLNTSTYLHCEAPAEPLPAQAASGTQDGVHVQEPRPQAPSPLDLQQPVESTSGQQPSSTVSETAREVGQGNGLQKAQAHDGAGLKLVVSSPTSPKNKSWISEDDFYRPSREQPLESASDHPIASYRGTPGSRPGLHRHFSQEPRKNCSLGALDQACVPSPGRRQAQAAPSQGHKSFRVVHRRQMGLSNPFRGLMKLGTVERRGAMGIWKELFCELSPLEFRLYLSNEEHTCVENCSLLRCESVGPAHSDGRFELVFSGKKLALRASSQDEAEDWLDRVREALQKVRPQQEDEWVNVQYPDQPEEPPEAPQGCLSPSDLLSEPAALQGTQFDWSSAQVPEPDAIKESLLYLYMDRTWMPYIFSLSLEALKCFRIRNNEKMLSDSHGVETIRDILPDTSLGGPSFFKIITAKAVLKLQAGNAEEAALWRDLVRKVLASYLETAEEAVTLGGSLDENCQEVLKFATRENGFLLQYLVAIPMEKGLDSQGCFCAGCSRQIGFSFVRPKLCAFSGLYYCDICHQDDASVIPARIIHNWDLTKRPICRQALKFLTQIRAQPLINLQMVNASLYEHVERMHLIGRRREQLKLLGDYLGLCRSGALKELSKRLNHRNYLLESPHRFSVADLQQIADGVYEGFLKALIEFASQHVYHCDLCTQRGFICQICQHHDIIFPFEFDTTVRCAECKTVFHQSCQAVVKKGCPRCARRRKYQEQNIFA

Vps26A-nLuc = Vps26A-nLuc (UniProt O75436); assay: FRET or BRET
CLN3 = biological target: T2, CLN3 (UniProt Q13286); assay: co-IP
T2 sequence: T1 sequence

sortilin = sortilin (UniProt Q99523); assay: co-IP

binding [1]: binds
Molecule: Rab7A (from UniProt P51149 1-207)

binding (RlucII-CLN3): binds
binding (Vps26A-nLuc): binds
Molecule: sortilin-YFP (from UniProt Q99523 78-831) (receptor)

Second part, the molecule before the results:

Molecule: PLEKHM1-GFP10 (from UniProt Q9Y4G2 1-1056)
binding (RlucII-Rab7A): binds

Molecule: Vps26A-GFP10 (from UniProt O75436 1-327)
binding (RlucII-CLN3): binds
binding (RlucII-Rab7A): binds

Molecule: endogenous sortilin (from UniProt Q99523 78-831) (receptor)
binding [1]: binds

B1: GFP10-CLN3 (natural protein, UniProt Q13286 1-438, looked up)
chain: T1 sequence
binding (RlucII-Rab7A): binds

B2: CLN5 (protein, UniProt O75503 44-358)
chain: VSGIPSRRHWPVPYKRFDFRPKPDPYCQAKYTFCPTGSPIPVMEGDDDIEVFRLQAPVWEFKYGDLLGHLKIMHDAIGFRSTLTGKNYTMEWYELFQLGNCTFPHLRPEMDAPFWCNQGAACFFEGIDDVHWKENGTLVQVATISGNMFNQMAKWVKQDNETGIYYETWNVKASPEKGAETWFDSYDCSKFVLRTFNKLAEFGAEFKNIETNYTRIFLYSGEPTYLGNETSVFGPTGNKTLGLAIKRFYYPFKPHLPTKEFLLSLLQIFDAVIVHKQFYLFYNFEYWFLPMKFPFIKITYEEIPLPIRNKTLSGL
binding (CLN3): binds
binding (sortilin): binds
